The target in experiment [1] is T1, gel-purified GST-tagged Mitofilin (expressed in E. coli) (UniProt Q16891).
T1 sequence (looked up): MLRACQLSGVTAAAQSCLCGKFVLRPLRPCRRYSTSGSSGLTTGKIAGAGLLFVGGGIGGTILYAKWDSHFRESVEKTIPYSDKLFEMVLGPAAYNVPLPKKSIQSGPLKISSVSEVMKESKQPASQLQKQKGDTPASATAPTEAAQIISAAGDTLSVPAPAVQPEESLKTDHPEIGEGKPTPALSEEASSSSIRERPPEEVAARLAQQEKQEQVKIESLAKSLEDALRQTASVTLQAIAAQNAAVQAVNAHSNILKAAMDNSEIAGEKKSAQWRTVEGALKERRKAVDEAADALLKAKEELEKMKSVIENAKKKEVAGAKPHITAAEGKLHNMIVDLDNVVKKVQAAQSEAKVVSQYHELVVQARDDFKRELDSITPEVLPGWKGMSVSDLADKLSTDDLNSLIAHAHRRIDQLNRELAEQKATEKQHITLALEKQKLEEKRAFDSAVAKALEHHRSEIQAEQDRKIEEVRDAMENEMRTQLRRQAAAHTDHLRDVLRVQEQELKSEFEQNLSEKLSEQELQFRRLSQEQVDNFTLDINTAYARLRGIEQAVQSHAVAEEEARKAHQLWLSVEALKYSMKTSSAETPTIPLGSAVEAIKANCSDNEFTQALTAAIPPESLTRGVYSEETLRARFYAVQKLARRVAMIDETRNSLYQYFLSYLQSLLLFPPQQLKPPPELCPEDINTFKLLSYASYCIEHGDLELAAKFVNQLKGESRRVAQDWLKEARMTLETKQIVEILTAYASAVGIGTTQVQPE
Nature of the experiment: S-tag pull-down of purified proteins, Western blot. On the technique in general: A western blot detects proteins with antibodies after separation by electrophoresis.

Experiment [2] deals with T2, endogenous Mitofilin (human) (UniProt Q16891).
T2 sequence (looked up): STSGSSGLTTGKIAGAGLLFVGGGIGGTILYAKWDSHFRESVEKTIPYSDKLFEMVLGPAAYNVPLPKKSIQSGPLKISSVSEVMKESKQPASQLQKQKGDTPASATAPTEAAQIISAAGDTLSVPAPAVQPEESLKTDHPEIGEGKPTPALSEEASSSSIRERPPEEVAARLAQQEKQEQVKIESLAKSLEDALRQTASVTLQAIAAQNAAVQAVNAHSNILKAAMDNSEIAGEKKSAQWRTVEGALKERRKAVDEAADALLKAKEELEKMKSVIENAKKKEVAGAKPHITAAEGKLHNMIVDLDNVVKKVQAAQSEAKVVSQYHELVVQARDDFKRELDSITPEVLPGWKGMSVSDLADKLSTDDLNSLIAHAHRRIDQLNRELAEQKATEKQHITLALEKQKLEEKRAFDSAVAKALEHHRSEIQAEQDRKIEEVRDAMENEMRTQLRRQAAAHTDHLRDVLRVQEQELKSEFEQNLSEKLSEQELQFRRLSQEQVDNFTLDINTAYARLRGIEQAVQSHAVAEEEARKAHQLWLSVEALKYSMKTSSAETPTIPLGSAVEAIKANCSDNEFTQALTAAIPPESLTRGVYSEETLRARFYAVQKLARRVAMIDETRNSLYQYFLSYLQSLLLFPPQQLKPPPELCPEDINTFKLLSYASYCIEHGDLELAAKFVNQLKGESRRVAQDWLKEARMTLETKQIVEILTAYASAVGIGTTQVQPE
Put plainly: immunoprecipitation from RKO and MCF7 cell lysates, Western blot.

In experiment [3] the target is T2, endogenous Mitofilin (human). Put plainly: introduction of Example 1, summing up its results.
Experiment [4] has the same target. Nature of the experiment: restates the pull-down and immunoprecipitation of FIG. 7.
For experiment [5] the target is unchanged. Put plainly: immunoprecipitation with anti-CHCM1/CHCHD6 antibody, Western blot.

Results are given in words; binding and its absence hold for the method and conditions named. For part of these data: In cells and extracts the contact can be indirect. Some results given as binding are weak or reduced against the parent protein; the word gives no strength. For part of these data: Tags and fused reporters may be left off the sequences shown.

B1: S-tagged CHCM1/CHCHD6 deletion variant lacking the N-terminal 100 amino acids (protein, not shown: small tags and cut ends)
chain: LFQVAKREREAATKHSKASLPTGEGSISHEEQKSVRLARELESREAELRRRDTFYKEQLERIERKNAEMYKLSSEQFHEAASKMESTIKPRRVEPVCSGLQAQILHCYRDRPHEVLLCSDLVKAYQRCVSAAHKG
B1: the binding result in experiment [1] is “binds”.

B2: S-tagged CHCM1/CHCHD6 deletion variant lacking the N-terminal 50 amino acids (protein, not shown: small tags and cut ends)
chain: STFGLQDGNLRAPHKESTLPRSGSSGGQQPSGMKEGVKRYEQEHAAIQDKLFQVAKREREAATKHSKASLPTGEGSISHEEQKSVRLARELESREAELRRRDTFYKEQLERIERKNAEMYKLSSEQFHEAASKMESTIKPRRVEPVCSGLQAQILHCYRDRPHEVLLCSDLVKAYQRCVSAAHKG
B2: in experiment [1], the binding entry was “binds”.

B3: endogenous CHCM1/CHCHD6 (protein)
chain: GSTESSEGRRVSFGVDEEERVRVLQGVRLSENVVNRMKEPSSPPPAPTSSTFGLQDGNLRAPHKESTLPRSGSSGGQQPSGMKEGVKRYEQEHAAIQDKLFQVAKREREAATKHSKASLPTGEGSISHEEQKSVRLARELESREAELRRRDTFYKEQLERIERKNAEMYKLSSEQFHEAASKMESTIKPRRVEPVCSGLQAQILHCYRDRPHEVLLCSDLVKAYQRCVSAAHKG
In the case of B3, the binding entry in experiment [2], in experiment [3], in experiment [4] and in experiment [5] was “binds” in each case.
